Test results from patent US9682928B2 (NeuroPro Therapeutics, Inc., priority 2009, dated 2017).

Assays:
[1] = oral; cited from earlier work

Compound: NS(=O)(=O)c1cc(C(=O)O)c(NCc2ccco2)cc1Cl [Furosemide]
- Absorption in the intestine [1]: 40%
- Low-[Cl−]o-induced slow oscillations in CA1 (rat hippocampal slices; 2.5 mM furosemide, [K+]o 12 mM, [Cl−]o 16 mM): completely blocked
- Exposure time to cessation of spontaneous bursting (CA1 before CA3) (rat hippocampal slices; furosemide-containing (2.5 mM) or low-chloride medium, high-[K+]o, bicuculline or 4-AP): 30 to 40 min
